Experimental data from publication doi:10.1101/2023.08.31.555694.

Columns and labels:
[1] = target: T1, GFP-AGO1 fusion protein (Arabidopsis thaliana Argonaute 1) (A. thaliana) (UniProt O04379); test: co-IP
T1 sequence: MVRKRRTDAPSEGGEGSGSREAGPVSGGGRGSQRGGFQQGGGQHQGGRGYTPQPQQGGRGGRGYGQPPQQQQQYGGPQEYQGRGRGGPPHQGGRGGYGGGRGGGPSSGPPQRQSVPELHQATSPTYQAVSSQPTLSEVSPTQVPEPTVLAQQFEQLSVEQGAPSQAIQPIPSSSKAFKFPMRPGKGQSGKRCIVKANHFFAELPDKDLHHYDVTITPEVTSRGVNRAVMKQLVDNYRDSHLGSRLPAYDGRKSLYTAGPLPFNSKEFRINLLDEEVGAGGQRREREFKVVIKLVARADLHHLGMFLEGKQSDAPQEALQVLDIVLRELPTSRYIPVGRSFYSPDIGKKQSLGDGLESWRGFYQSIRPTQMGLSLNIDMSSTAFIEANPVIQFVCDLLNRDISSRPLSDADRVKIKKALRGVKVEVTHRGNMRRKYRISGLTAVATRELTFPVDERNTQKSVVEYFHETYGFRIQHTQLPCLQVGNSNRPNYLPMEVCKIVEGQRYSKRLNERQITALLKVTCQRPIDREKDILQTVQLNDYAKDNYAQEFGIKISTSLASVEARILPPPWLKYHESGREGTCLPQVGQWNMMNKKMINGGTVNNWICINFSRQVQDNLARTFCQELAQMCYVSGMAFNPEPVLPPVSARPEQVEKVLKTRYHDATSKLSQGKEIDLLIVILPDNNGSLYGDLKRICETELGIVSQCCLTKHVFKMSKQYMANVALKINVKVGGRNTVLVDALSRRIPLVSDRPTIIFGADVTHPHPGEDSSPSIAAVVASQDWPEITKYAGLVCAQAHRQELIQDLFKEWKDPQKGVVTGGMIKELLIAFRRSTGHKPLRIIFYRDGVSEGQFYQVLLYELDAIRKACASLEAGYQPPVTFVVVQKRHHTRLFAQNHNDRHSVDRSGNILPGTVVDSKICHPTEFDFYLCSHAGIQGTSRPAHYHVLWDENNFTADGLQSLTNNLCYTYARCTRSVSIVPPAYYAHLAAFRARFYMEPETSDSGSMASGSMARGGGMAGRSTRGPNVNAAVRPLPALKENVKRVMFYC

[2] = target: T2, Argonaute 1 protein-yellow fluorescent protein N-proximal domain fusion protein (A. thaliana) (UniProt O04379); test: split reporter
T2 sequence: T1 sequence

Row | Substance | binding [1] | binding [2]
1 | Fny-CMV 2b protein, C-terminal RFP fusion (cucumber mosaic virus, strain Fny) | binds | –
2 | Fny-CMV 2b protein, split-YFP fusion for BiFC (cucumber mosaic virus, strain Fny) | – | binds
3 | Ho-CMV 2b protein (recapitulated from Fny-CMV 2b), C-terminal RFP fusion (cucumber mosaic virus, strain Ho) | binds | –
4 | Ho-CMV 2b protein (recapitulated from Fny-CMV 2b), split-YFP fusion for BiFC (cucumber mosaic virus, strain Ho) | – | binds

These are yes or no findings as the source states them, for the method shown. Binding seen in cells or lysates may run through a third protein. A result given as binding can be weak or reduced; the word gives no strength. Sequences can lack the tags named with a protein.
